Measured values: publication PMC11658773
No constants are given. Whether binding was seen depends on the method and setting. For some assays here: In cells and extracts the contact can be indirect. Some binding calls cover weakened binding; strength is not graded here.

The chains behind the UniProt entries cited, without tags or fusion partners.
UniProt O08530: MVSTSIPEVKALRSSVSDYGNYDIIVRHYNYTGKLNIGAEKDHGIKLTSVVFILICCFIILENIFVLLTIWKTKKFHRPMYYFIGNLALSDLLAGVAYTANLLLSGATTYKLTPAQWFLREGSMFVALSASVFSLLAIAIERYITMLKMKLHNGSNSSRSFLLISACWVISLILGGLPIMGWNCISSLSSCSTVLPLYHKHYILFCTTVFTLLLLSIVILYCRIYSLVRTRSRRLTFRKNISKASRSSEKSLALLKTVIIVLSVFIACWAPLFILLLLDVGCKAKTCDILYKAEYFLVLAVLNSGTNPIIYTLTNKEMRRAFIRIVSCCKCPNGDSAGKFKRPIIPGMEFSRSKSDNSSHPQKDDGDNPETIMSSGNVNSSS

Experiments:
[1] = molecular target: S1PR1 (sphingosine 1-phosphate receptor 1), bait in pBT3-STE (UniProt O08530); assay: two-hybrid; split-ubiquitin membrane-based yeast two-hybrid; bait fused to Cub-LexA-VP16 (pBT3-STE), prey fused to NubG (pPR3-C); cotransformed into yeast NMY51; growth on SD/-Trp/-Leu for 3 days at 30°C, interaction examined on SD/-Leu/-Trp/-His/-Ade (QDO, X-gal)
[2] = molecular target: S1PR1, endogenous in mouse dentate gyrus (mouse (endogenous in dentate gyrus tissue)) (UniProt O08530); assay: co-IP; mouse dentate gyrus tissue lysed in RIPA buffer; anti-S1PR1 antibody (Abcam Ab259902) on Protein A beads, 1 hr at room temperature; immunoblot with anti-ITGA2; immunoglobulin G as negative control

Binder | binding [1] | binding [2]
ITGA2 (integrin alpha 2), prey in pPR3-C (protein, UniProt Q62469 27-1178) YNVGLPGAKIFSGPSSEQFGYSVQQLTNPQGNWLLVGSPWSGFPENRMGDVYKCPVDLPTATCEKLNLQNSASISNVTEIKTNMSLGLTLTRNPGTGGFLTCGPLWAHQCGNQYYATGICSDVSPDFQFLTSFSPAVQACPSLVDVVVVCDESNSIYPWEAVKNFLVKFVTGLDIGPKKTQVALIQYANEPRIIFNLNDFETKEDMVQATSETRQHGGDLTNTFRAIEFARDYAYSQTSGGRPGATKVMVVVTDGESHDGSKLKTVIQQCNDDEILRFGIAVLGYLNRNALDTKNLIKEIKAIASTPTERYFFNVADEAALLEKAGTLGEQIFSIEGTVQGGDNFQMEMAQVGFSADYAPQNDILMLGAVGAFDWSGTLVQETSHKPVIFPKQAFDQVLQDRNHSSFLGYSVAAISTEDGVHFVAGAPRANYTGQIVLYSVNKQGNVTVIQSHRGDQIGSYFGSVLCSVDVDKDTITDVLLVGAPTYMNDLKKEEGKVYLFTITKGILNQHQFLEGPEGTGNARFGSAIAALSDINMDGFNDVIVGSPVENENSGAVYIYNGHQGTIRTKYSQKILGSNGAFRRHLQFFGRSLDGYGDLNGDSITDVSIGALGQVIQLWSQSIADVAIEALFTPDKITLLNKDAKITLKLCFRAEFRPAGQNNQVAILFNMTLDADGHSSRVTSRGVFRENSERFLQKNMVVNEVQKCSEHHISIQKPSDVVNPLDLRVDISLENPGTSPALEAYSETVKVFSIPFYKECGSDGICISDLILDVQQLPAIQTQSFIVSNQNKRLTFSVILKNRGESAYNTVVLAEFSENLFFASFSMPVDGTEVTCEVGSSQKSVTCDVGYPALKSEQQVTFTINFDFNLQNLQNQAAINFQAFSESQETNKADNSVSLTIPLLYDAELHLTRSTNINFYEISSDENAPSVIKSVEDIGPKFIFSLKVTAGSAPVSMALVTIHIPQYTKEKNPLLYLTGIQTDQAGDISCTAEINPLKLPHTAPSVSFKNENFRHTKELDCRTTSCSNITCWLKDLHMKAEYFINVTTRVWNRTFAASTFQTVQLTAAAEIDTHNPQLFVIEENAVTIPLMIMKPTEKAEVPTGVIIGSIIAGILLLLAMTAGLWKLGFFKRQYKKMGQNPDEMDETTELNS | binds | 
ITGA2, endogenous in mouse dentate gyrus (protein, UniProt Q62469 27-1178) YNVGLPGAKIFSGPSSEQFGYSVQQLTNPQGNWLLVGSPWSGFPENRMGDVYKCPVDLPTATCEKLNLQNSASISNVTEIKTNMSLGLTLTRNPGTGGFLTCGPLWAHQCGNQYYATGICSDVSPDFQFLTSFSPAVQACPSLVDVVVVCDESNSIYPWEAVKNFLVKFVTGLDIGPKKTQVALIQYANEPRIIFNLNDFETKEDMVQATSETRQHGGDLTNTFRAIEFARDYAYSQTSGGRPGATKVMVVVTDGESHDGSKLKTVIQQCNDDEILRFGIAVLGYLNRNALDTKNLIKEIKAIASTPTERYFFNVADEAALLEKAGTLGEQIFSIEGTVQGGDNFQMEMAQVGFSADYAPQNDILMLGAVGAFDWSGTLVQETSHKPVIFPKQAFDQVLQDRNHSSFLGYSVAAISTEDGVHFVAGAPRANYTGQIVLYSVNKQGNVTVIQSHRGDQIGSYFGSVLCSVDVDKDTITDVLLVGAPTYMNDLKKEEGKVYLFTITKGILNQHQFLEGPEGTGNARFGSAIAALSDINMDGFNDVIVGSPVENENSGAVYIYNGHQGTIRTKYSQKILGSNGAFRRHLQFFGRSLDGYGDLNGDSITDVSIGALGQVIQLWSQSIADVAIEALFTPDKITLLNKDAKITLKLCFRAEFRPAGQNNQVAILFNMTLDADGHSSRVTSRGVFRENSERFLQKNMVVNEVQKCSEHHISIQKPSDVVNPLDLRVDISLENPGTSPALEAYSETVKVFSIPFYKECGSDGICISDLILDVQQLPAIQTQSFIVSNQNKRLTFSVILKNRGESAYNTVVLAEFSENLFFASFSMPVDGTEVTCEVGSSQKSVTCDVGYPALKSEQQVTFTINFDFNLQNLQNQAAINFQAFSESQETNKADNSVSLTIPLLYDAELHLTRSTNINFYEISSDENAPSVIKSVEDIGPKFIFSLKVTAGSAPVSMALVTIHIPQYTKEKNPLLYLTGIQTDQAGDISCTAEINPLKLPHTAPSVSFKNENFRHTKELDCRTTSCSNITCWLKDLHMKAEYFINVTTRVWNRTFAASTFQTVQLTAAAEIDTHNPQLFVIEENAVTIPLMIMKPTEKAEVPTGVIIGSIIAGILLLLAMTAGLWKLGFFKRQYKKMGQNPDEMDETTELNS |  | binds
